From patent publication US11384130B2 (Vasomune Therapeutics Inc., priority 2017, dated 2022) come the findings set out here.

A short description of this data set: peptide made by a vendor (Fmoc solid-phase peptide synthesis; Wang polystyrene resin (initial functionalization 1.2 mmol/g; 0.8 mmol/g loading); DIC/Oxyma). Conditions: whole synthesis.
Where [1] appears, read: TFA salt (Mpa-T7 peptide), TFA salt and acetate salt (Mpa-Br).

In the case of Mpa-His-His-His-Arg-His-Ser-Phe-OH, the “final HPLC purity” value (RP-HPLC, scale of the general procedure 45.4 mmol, TFA salt) came to 96.2%. The “crude HPLC purity” value by setting is: (RP-HPLC, scale of the general procedure 45.4 mmol, TFA salt (Mpa-T7 peptide), TFA salt and acetate salt (Mpa-Br), run 1) 78.5%; (RP-HPLC, scale of the general procedure 45.4 mmol, TFA salt (Mpa-T7 peptide), TFA salt and acetate salt (Mpa-Br), run 2) 70.5%. Also, the isolated mass is, setting by setting: (TFA salt) 11.4 g; under setting [1], 6.7 g. The crude mass under setting [1] was 31.5 g. Further, the isolated yield runs as follows: (net peptide, scale of the general procedure 45.4 mmol, TFA salt (Mpa-T7 peptide), TFA salt and acetate salt (Mpa-Br)) 25.8%; (overall from resin loading step, scale of the general procedure 45.4 mmol, TFA salt) 43.7%. The crude yield runs as follows: (resin weight gain, scale 45.4 mmol, TFA salt (Mpa-T7 peptide), TFA salt and acetate salt (Mpa-Br)) 89.1%; (scale of the general procedure 45.4 mmol, TFA salt (Mpa-T7 peptide), TFA salt and acetate salt (Mpa-Br)) 91.8%.
